# US20130039916A1
# Amino acid sequences for entries named in this document (tags omitted). A change or cut given only in a name is not applied to a line headed by its entry.
# UniProt P29460: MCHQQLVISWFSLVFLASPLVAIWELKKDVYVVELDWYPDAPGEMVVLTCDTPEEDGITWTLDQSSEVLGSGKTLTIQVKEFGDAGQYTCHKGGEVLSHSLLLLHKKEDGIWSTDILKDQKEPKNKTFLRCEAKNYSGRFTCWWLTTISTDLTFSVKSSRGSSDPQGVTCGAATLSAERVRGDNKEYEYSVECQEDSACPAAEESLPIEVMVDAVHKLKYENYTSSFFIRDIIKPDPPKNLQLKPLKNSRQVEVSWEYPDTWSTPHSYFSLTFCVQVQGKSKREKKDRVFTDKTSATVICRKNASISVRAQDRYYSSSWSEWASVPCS
# Results are given in words; binding and its absence hold for the method and conditions named. Some results given as binding are weak or reduced against the parent protein; the word gives no strength.
# Target: non-linked human IL-23 (p19 and p40 subunits) with the N222Q variant of p40, as used for the crystal structure (human) (UniProt P29460)
# Assay: X-ray crystallography of the complex
binder,measurement,value
"Fab fragment of the chimeric form of antibody 7G10 (Fab, V domains shown) VH: EVQLQQSGPELVKPGASVKMSCKASGYTFTSNVMHWVKQKPGQGLEWIGYINPYNDGTKYNEKFKGKATLTSDKSSSTAYMELSSLTSEDSAVYYCARNWDVAYWGQGTLVTVSA VL: DIVMTQSPATLSVTPGDRVSLSCRASQSISDYLHWYRQKSHESPRLLIKYASQSISGIPSRFSGSGSGSDFTLSINSVEPEDVGVYYCQNGHSFPFTFGSGTKLEIKR",binding,binds
